Source: patent US20250361297A1, “ANTI- SIGLEC-15 BINDING MOLECULES AND METHODS OF USE” (ADAPTAM THERAPEUTICS, S.L., priority 2024, published 2025)
Positions count from the first letter of the chain named. No constants are given. Whether binding was seen depends on the method and setting. A result given as binding can be weak or reduced; the word gives no strength. Each block holds one binder with its values, some of them ahead of it.

What was measured:
[1] = target: recombinant mouse Siglec-15-his protein (Bonopusbio, CW71-50 ug) (mouse); test: ELISA, plate coated with 100 ng per well recombinant mouse Siglec-15 (supplier not named in Example 3), HRP anti-mouse IgG, OD450
[2] = target: recombinant cynomolgus Siglec-15-his protein (Bonopusbio, CW70-50 ug) (cynomolgus monkey); test: ELISA on coated recombinant cynomolgus Siglec-15-his
[3] = target: recombinant cynomolgus Siglec-15-his protein (Bonopusbio, CW70-50 ug) (cynomolgus monkey); test: ELISA, plate coated with 100 ng per well recombinant cynomolgus Siglec-15 (supplier not named in Example 3), HRP anti-mouse IgG, OD450
[4] = target: recombinant cynomolgus Siglec-15-his protein (Bonopusbio, CW70-50 ug) (cynomolgus monkey); test: ELISA, plate coated with recombinant cynomolgus Siglec-15-his, antibody titrated up to about 200 nM, OD 450 nm
[5] = target: recombinant cynomolgus Siglec-15-his protein (Bonopusbio, CW70-50 ug) (cynomolgus monkey); test: ELISA, plate coated with 2 µg/ml cynomolgus Siglec-15-his, antibody 3-fold dilutions from 198 nM, HRP goat anti-human IgG Fc, OD 450 nm
[6] = target: recombinant mouse Siglec-15-his protein (Bonopusbio, CW71-50 ug) (mouse); test: ELISA on coated recombinant mouse Siglec-15-his
[7] = target: recombinant mouse Siglec-15-his protein (Bonopusbio, CW71-50 ug) (mouse); test: ELISA, plate coated with 2 µg/ml mouse Siglec-15-his, antibody 3-fold dilutions from 198 nM, HRP goat anti-human IgG Fc, OD 450 nm
[8] = target: recombinant mouse Siglec-15-his protein (Bonopusbio, CW71-50 ug) (mouse); test: ELISA, plate coated with recombinant mouse Siglec-15-his, antibody titrated up to about 200 nM, OD 450 nm
[9] = target: recombinant cynomolgus Siglec-15-his protein (Bonopusbio, CW70-50 ug) (cynomolgus monkey); test: ELISA on coated recombinant cynomolgus Siglec-15-his (FIG. 15B)
[10] = target: recombinant mouse Siglec-15-his protein (Bonopusbio, CW71-50 ug) (mouse); test: ELISA on coated recombinant mouse Siglec-15-his (FIG. 15C)
[11] = target: recombinant mouse Siglec-15-his protein (Bonopusbio, CW71-50 ug) (mouse); test: ELISA, plate coated with 2 µg/ml mouse Siglec-15-his, antibody 3-fold dilutions from 198 nM, HRP goat anti-human IgG Fc, OD450
[12] = target: recombinant cynomolgus Siglec-15-his protein (Bonopusbio, CW70-50 ug) (cynomolgus monkey); test: ELISA, plate coated with 2 µg/ml cynomolgus Siglec-15-his, antibody 3-fold dilutions from 198 nM, HRP goat anti-human IgG Fc, OD450

binding [1]: binds
binding [2]: binds
binding [3]: binds
binding [4]: binds
binding [5]: binds
binding [6]: binds
binding [7]: binds
binding [8]: binds
B1: S15B1 (antibody, V domains shown)
VH: QVQLQQSGPELVKPGASVKISCKASGYAFSSSWMNWVKQRPGKGLEWIGRIYPGHGETNYNGKFKDKATVTADKSSSTTYMQLSSLTSEDSAVYFCARVDNSDPYYFDYWGQGTTLTVSS
VL: DIVLTQSPASLAVSLGQRATISCRASKSVSTSGYSYMHWYQQKPGQPPKLLIYLASNLESGVPARFSGSGSGTDFTLNIHPVEEEDAATYYCQHGRELPFTFGSGTKLEIK

binding [9]: binds
binding [10]: binds
binding [11]: binds
binding [12]: binds
B5: ZLA-1243-E01 (antibody, V domains shown)
VH: QVQLVQSGGGLVQPGRSLRLSCAASGFTFDDYAMHWVRQAPGKGLEWVSGISWNSGSIGYADSVKGRFTISRDNAKNSLYLQMNSLRAEDTALYYCAKGLWPSYDLDAFDIWGQGTMVTVSS
VL: QSALTQPASVSGSPGQSITLSCTGTSSDVGAYNFVSWYQQHPGTAPKLMIYEVSNRPSGVSDRFSGSKSGNTASLTISGLQAEDEADYYCSSYTSTIPPFVFGTGTKVTVL

Further lines, the binder ahead of its results:

B2: S15B1-VH2 + VL2 (antibody, V domains shown)
VH: QVQLVQSGAEVKKPGASVKVSCKASGYAFSSSWMNWVRQAPGQGLEWIGRIYPGHGETNYNGKFKDRVTMTADTSTSTVYMELSSLRSEDTAVYFCARVDNSDPYYFDYWGQGTTVTVSS
VL: B1 VL with L15P, S22T, N78T, H80N, E84A, A87T, S104G
binding [2]: binds
binding [4]: binds
binding [6]: binds
binding [8]: binds

B3: S15B1-VH3 + VL1 (antibody, V domains shown)
VH: B2 VH with R38K, V68A
VL: B1 VL with L15P, S22T, N78T, H80N, E84A, A87T, T89N, S104G
binding [2]: binds
binding [4]: binds
binding [6]: binds
binding [8]: binds

B4: S15B1-VH3 + VL2 (antibody, V domains shown)
VH: B2 VH with R38K, V68A
VL: B1 VL with L15P, S22T, N78T, H80N, E84A, A87T, S104G
binding [2]: binds
binding [4]: binds
binding [6]: binds
binding [8]: binds
